The series in a line: general procedure: Fmoc solid-phase peptide synthesis; 2-chlorotrityl resin; DCC/HOBt. The conditions noted are these: whole synthesis, scale 150 mg of the resin.

As to “Fmoc-Trp-Tyr-Lys-His-Val-Ala-Ser-Pro-Arg-Tyr-His-Thr-Val-Gly-Arg-Ala-Ala-Gly-Leu-Leu-Met-Gly-Leu”, the isolated mass is 9.7 mg.

The record behind these values is patent US20040029178A1 (priority 2000, published 2004).
